Experimental data published in article PMC5082931.
Results are given in words; binding and its absence hold for the method and conditions named. In cells and extracts the contact can be indirect. Some results given as binding are weak or reduced against the parent protein; the word gives no strength. For some of these results: Sequences can lack the tags named with a protein.

By UniProt entry, the sequences of proteins in these tests, tags left out. Where a name states a change or a piece, a line headed by the entry shows the natural chain unless it says otherwise. Chains listed by the source or under a name are the forms on record and can include a tag or linker. Residues count along the entry.
P75-RFP (RFP-tagged P75 neurotrophin receptor) (P08138, residues 29-427): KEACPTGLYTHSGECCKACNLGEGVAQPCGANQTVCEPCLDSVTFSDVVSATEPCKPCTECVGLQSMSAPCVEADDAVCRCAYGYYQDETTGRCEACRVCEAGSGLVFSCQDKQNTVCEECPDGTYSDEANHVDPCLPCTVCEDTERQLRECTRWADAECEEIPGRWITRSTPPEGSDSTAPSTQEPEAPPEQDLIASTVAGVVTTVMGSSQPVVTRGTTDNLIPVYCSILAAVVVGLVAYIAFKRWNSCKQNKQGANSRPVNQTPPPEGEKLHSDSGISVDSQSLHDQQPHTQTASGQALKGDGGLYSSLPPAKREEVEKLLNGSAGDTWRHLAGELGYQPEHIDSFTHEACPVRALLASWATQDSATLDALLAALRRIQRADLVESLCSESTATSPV
P75-RFP ^(Y/F) (P08138, form named): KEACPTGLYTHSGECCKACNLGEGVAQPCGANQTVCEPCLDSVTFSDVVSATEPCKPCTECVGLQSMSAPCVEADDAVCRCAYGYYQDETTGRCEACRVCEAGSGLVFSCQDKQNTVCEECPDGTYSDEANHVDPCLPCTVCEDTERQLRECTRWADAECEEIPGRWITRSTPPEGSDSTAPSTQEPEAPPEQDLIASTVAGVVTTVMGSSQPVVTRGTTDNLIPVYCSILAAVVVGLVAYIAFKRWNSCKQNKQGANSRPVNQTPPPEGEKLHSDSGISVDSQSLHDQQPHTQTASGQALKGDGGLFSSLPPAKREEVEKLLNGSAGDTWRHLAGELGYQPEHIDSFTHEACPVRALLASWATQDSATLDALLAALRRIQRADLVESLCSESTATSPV
P75-RFP^(Y/E) (P08138, form named): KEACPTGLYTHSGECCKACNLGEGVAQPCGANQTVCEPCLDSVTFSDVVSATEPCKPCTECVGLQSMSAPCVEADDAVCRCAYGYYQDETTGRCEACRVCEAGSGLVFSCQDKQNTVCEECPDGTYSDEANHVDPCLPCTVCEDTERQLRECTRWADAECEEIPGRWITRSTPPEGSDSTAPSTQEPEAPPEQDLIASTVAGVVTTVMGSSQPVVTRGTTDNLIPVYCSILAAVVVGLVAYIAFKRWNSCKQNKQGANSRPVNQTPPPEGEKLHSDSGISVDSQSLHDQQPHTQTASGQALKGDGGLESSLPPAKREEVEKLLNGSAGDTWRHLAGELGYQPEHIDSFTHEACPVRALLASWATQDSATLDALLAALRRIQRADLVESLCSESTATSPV
UniProt P33176: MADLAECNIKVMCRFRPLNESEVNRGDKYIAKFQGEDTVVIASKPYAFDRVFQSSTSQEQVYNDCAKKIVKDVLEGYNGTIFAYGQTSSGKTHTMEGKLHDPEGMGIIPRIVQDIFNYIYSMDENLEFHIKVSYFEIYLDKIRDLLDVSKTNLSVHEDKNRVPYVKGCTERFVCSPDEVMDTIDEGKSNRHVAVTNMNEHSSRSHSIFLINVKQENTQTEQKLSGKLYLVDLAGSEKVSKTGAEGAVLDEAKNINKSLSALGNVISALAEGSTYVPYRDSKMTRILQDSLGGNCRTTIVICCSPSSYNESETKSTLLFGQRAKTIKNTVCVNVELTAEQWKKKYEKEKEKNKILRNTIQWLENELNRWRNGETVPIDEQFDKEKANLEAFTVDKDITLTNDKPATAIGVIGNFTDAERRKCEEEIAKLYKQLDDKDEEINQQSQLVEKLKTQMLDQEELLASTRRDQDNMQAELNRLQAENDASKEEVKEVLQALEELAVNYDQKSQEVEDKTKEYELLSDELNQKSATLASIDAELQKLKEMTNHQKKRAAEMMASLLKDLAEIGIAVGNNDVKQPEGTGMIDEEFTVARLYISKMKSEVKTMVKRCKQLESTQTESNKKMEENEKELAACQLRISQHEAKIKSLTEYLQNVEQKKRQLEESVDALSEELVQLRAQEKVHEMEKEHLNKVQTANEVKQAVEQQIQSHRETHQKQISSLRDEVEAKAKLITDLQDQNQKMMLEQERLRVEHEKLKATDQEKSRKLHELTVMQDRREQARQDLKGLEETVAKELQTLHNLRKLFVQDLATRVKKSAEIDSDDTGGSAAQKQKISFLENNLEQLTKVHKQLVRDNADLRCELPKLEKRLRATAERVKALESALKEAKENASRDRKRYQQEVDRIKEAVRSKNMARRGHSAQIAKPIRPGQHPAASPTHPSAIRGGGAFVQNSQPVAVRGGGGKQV
UniProt Q12756: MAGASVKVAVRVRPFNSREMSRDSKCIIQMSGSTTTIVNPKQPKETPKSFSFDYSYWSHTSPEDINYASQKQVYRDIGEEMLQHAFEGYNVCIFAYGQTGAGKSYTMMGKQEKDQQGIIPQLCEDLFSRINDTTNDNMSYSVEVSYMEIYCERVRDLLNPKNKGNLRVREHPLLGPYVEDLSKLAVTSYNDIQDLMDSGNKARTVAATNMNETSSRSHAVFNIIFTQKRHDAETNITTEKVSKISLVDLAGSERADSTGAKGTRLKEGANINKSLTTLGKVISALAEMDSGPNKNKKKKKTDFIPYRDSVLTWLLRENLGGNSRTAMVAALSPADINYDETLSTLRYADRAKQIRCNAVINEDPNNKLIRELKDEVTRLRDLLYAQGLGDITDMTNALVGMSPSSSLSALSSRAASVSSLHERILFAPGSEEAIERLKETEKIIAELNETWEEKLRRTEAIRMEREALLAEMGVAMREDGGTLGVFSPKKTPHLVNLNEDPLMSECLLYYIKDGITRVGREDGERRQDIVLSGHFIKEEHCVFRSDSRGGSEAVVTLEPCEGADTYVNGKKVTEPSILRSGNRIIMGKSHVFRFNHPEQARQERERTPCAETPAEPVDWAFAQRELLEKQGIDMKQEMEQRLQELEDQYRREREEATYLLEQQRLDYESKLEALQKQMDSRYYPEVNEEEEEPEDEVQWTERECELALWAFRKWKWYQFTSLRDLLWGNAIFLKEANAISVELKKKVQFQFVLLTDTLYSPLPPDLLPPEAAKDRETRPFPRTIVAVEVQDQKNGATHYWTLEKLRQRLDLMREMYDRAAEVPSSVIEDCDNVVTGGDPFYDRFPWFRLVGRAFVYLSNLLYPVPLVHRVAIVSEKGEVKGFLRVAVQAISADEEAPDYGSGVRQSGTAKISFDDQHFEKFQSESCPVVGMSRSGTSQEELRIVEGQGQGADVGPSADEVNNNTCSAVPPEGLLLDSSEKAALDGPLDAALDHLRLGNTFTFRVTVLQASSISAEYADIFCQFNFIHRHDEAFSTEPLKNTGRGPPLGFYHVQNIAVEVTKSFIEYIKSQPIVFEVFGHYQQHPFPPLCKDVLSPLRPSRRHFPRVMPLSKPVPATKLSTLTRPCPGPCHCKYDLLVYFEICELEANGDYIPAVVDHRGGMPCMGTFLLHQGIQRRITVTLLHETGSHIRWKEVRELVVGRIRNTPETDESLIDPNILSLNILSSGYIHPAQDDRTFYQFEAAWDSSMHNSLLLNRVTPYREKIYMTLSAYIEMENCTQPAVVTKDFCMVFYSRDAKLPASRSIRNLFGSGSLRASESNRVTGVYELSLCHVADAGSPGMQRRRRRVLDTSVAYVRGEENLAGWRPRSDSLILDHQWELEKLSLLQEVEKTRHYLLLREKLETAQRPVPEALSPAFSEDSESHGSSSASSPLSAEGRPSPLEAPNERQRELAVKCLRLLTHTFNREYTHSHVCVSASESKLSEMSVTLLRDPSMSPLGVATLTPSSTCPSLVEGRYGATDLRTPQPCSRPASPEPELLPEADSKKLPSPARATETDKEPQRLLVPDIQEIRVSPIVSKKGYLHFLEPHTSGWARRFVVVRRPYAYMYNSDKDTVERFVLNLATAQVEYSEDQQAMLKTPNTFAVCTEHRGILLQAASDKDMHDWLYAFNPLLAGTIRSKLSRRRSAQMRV
UniProt O88448: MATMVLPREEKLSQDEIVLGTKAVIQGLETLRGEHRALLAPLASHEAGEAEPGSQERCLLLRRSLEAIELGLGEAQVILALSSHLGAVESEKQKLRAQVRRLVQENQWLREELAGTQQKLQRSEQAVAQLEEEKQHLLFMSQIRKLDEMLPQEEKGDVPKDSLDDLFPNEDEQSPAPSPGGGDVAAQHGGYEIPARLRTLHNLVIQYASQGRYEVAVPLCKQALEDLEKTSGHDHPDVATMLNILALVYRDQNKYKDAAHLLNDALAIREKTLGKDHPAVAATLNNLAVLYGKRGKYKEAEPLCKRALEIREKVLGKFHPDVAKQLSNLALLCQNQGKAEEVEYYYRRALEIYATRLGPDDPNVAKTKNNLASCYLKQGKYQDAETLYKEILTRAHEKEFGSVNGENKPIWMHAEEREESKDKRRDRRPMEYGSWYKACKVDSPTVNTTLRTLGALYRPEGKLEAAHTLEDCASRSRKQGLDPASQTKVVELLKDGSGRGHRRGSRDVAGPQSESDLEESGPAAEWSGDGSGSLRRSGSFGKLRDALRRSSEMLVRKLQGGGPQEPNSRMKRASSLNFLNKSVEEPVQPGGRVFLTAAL

Assays:
[1] = molecular target: T1, GST-Fat3 (GST fused to the intact cytoplasmic domain of Fat3) (mouse) (UniProt Q8BNA6); assay: pull-down; GST-Fat3 fusion proteins expressed in HEK293 cells, cleared lysate (20mM Tris-HCl pH 8.0, 137mM NaCl, 2mM EDTA, 1% NP-40, 10% glycerol) on Glutathione Sepharose 4B for 2h at 4°C; endogenous co-purified proteins seen by silver staining (band identified by tandem mass spectrometry) and by Western …
T1 sequence: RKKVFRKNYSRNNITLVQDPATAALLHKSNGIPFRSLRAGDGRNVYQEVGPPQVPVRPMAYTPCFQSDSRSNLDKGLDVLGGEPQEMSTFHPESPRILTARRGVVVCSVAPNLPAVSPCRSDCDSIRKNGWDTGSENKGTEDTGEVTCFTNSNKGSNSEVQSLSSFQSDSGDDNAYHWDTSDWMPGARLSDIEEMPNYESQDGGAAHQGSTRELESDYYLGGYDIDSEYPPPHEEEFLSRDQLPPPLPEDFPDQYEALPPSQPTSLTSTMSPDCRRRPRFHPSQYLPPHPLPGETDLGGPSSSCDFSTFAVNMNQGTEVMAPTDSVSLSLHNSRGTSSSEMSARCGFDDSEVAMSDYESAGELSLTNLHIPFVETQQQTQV

[2] = molecular target: P75-GFP phosphorylated at Y-308 (from pervanadate-treated HEK293 cells) (human) (UniProt P08138); assay: co-IP; HEK293 cells transfected with P75-GFP constructs, serum-deprived for 24 hours and exposed to 30μM pervanadate for 30 min; P75-GFP precipitated with goat anti-GFP antisera, Western blot for endogenous Kif5B
[3] = molecular target: YFP-Kif5B (UniProt P33176); assay: co-IP; HEK293 cells co-transfected with YFP-Kif5B and HA-tagged Fat3 or RFP-tagged P75^NTR constructs; YFP-Kif5B precipitated with goat anti-GFP antibodies, overnight at 4°C, lysis buffer 50mM Tris-HCl pH 8.0, 150mM NaCl, 1mM EDTA, 1% NP-40, 10% glycerol; non-specific IgG as control
[4] = molecular target: T1, GST-Fat3 (GST fused to the intact cytoplasmic domain of Fat3) (mouse); assay: pull-down; HEK293 cells co-transfected with mCherry-KLC2 and GST-Fat3 fusion proteins; GST pull-down, Western blot with dsRed antibodies

Row | Substance | binding [1] | binding [3] | further results
1 | Kif1A (endogenous, HEK293 cells) (from UniProt Q12756 1-1690) | no binding | – | –
2 | P75-RFP (RFP-tagged P75 neurotrophin receptor) (from UniProt P08138 29-427) | – | binds | –
3 | mCherry-KLC2 (from UniProt O88448 1-599) | – | – | binding [4]: binds

More lines, main results first:

Row | binding [1] | binding [3] | Substance | further results
4 | binds | – | Kif5B (endogenous, HEK293 cells) (from UniProt P33176 1-963) | binding [2]: binds
5 | – | binds | P75-RFP ^(Y/F) (from UniProt P08138 29-427) (receptor) | –
6 | – | binds | P75-RFP^(Y/E) (from UniProt P08138 29-427) (receptor) | –
